Data reported in the supplement of paper PMC10849652.
This is one part of the list. Residues, ends and D or L forms follow the SMILES beside them. *: point of attachment. Cbz = O=C(OCc1ccccc1)*

Amino acid sequences for entries named in this document (tags omitted). A change or cut given only in a name is not applied to a line headed by its entry.
UniProt Q14155: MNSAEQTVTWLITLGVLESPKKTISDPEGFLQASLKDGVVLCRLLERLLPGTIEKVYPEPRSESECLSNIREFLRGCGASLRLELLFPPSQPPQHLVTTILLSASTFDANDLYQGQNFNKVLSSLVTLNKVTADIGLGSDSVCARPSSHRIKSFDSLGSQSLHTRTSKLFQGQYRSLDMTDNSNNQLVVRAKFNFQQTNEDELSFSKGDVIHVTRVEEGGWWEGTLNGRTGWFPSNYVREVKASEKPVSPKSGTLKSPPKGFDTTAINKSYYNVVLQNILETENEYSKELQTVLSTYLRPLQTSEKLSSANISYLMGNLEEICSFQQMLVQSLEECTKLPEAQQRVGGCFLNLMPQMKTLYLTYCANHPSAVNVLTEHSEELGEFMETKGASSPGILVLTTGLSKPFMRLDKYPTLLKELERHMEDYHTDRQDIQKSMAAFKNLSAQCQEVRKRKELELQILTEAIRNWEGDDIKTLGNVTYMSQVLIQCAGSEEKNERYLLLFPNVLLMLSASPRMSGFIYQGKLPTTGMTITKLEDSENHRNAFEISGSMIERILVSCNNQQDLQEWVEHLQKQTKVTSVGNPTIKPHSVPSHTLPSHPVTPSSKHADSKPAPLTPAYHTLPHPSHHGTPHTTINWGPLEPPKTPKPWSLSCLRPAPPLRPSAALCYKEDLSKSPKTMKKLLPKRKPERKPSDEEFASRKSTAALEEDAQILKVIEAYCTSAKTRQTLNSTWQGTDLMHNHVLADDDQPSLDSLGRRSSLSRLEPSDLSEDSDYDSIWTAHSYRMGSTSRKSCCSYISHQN
UniProt P61966: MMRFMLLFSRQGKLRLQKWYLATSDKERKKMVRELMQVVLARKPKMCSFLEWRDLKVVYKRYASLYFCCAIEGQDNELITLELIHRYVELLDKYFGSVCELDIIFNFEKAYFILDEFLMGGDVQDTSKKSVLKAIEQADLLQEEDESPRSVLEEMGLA
UniProt Q10567: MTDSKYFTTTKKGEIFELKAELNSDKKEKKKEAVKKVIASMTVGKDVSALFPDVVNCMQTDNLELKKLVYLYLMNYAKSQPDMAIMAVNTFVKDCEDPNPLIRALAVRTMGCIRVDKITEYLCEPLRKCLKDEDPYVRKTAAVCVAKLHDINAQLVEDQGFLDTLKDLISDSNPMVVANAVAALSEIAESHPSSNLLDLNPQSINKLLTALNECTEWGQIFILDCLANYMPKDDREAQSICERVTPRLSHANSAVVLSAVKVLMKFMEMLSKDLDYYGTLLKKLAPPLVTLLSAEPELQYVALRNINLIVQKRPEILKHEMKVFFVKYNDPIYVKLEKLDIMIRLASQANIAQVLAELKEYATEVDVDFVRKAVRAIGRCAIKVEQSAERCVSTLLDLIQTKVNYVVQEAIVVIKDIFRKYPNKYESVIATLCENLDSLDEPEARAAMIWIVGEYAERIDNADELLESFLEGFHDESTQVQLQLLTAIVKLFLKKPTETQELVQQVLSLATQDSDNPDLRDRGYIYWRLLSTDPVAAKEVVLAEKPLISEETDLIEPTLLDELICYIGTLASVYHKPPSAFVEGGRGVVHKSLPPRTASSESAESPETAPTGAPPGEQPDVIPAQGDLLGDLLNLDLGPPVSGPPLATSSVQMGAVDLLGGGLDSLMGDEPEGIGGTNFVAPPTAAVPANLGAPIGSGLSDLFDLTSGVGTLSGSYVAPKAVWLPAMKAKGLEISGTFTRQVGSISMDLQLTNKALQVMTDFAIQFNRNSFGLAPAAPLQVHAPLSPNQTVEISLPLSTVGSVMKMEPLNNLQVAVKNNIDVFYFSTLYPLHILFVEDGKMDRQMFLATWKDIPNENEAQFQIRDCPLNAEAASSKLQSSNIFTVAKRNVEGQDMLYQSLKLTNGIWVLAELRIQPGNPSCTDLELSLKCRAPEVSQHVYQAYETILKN
UniProt Q8IUX4: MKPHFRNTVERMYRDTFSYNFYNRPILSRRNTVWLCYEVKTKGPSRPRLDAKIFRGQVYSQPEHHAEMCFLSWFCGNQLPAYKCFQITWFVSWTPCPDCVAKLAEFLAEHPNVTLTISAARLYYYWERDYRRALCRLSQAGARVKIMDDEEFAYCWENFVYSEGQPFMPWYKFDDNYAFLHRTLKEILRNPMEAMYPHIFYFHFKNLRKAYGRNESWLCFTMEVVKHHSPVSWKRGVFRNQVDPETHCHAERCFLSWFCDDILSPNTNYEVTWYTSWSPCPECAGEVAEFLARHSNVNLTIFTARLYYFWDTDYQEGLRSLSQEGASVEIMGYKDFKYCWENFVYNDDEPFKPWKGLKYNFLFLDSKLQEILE
UniProt O14727: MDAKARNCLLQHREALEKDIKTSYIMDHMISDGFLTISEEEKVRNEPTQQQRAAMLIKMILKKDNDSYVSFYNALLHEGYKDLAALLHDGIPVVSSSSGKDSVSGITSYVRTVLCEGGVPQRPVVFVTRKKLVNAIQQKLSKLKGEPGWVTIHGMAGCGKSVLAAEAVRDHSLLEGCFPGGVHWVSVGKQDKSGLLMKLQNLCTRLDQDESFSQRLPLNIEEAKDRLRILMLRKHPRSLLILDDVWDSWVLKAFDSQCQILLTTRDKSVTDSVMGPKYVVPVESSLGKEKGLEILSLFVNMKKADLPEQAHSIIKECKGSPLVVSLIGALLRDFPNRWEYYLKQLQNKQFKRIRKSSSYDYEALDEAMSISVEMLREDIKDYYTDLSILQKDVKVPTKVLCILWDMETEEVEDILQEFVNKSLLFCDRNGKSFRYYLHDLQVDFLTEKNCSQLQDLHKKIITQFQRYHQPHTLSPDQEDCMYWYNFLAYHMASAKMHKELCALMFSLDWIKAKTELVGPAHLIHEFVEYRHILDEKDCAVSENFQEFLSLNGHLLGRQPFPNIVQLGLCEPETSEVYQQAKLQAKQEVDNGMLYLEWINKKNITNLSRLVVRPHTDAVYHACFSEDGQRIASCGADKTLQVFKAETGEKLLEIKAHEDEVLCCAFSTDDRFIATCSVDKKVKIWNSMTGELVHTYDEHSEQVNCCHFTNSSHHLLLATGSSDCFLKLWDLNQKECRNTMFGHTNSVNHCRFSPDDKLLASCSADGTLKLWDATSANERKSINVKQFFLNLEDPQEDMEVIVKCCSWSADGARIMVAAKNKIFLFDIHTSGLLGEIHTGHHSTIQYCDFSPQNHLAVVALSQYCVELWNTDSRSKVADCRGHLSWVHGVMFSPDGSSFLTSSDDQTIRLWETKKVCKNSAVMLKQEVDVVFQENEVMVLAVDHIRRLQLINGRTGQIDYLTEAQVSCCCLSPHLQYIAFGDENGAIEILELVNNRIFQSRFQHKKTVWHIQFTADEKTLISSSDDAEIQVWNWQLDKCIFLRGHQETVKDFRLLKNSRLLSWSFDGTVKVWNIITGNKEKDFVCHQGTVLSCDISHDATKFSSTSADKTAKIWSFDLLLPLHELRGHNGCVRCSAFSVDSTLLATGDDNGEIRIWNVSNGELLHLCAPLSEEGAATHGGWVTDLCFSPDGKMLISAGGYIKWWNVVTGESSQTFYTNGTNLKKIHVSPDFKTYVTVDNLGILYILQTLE
UniProt P15514, whole entry, looked up: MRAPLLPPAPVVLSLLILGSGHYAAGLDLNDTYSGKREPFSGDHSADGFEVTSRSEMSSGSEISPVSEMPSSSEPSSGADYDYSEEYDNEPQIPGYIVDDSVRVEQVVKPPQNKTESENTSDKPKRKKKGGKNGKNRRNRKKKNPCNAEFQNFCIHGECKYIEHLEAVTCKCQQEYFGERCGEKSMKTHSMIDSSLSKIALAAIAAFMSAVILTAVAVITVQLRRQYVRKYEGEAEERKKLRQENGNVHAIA
UniProt O95445: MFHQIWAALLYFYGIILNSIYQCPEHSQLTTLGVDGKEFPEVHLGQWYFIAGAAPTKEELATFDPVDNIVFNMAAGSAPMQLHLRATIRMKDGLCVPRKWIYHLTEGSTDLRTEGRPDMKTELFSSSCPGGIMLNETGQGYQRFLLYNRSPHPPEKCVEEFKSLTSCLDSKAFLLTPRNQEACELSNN
UniProt Q9Y6B7: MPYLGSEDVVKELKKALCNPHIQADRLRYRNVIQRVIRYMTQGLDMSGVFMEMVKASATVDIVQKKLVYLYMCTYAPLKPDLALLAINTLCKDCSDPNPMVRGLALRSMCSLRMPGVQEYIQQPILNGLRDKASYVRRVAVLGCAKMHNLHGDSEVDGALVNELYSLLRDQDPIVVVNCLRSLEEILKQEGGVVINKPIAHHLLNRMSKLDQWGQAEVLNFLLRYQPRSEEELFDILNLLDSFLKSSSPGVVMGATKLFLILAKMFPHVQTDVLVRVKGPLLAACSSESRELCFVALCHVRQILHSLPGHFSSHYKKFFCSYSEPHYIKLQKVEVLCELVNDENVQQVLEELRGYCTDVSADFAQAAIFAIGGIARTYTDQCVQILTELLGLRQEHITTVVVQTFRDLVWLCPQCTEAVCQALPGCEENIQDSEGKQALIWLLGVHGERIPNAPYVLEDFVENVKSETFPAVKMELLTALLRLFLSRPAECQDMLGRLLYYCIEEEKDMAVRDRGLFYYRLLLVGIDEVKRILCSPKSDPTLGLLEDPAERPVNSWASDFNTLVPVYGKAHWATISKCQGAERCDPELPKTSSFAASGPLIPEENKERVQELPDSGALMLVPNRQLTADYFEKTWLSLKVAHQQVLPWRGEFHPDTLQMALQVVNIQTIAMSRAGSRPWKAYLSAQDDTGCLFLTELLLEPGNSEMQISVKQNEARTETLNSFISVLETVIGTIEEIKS
UniProt Q9H0R1: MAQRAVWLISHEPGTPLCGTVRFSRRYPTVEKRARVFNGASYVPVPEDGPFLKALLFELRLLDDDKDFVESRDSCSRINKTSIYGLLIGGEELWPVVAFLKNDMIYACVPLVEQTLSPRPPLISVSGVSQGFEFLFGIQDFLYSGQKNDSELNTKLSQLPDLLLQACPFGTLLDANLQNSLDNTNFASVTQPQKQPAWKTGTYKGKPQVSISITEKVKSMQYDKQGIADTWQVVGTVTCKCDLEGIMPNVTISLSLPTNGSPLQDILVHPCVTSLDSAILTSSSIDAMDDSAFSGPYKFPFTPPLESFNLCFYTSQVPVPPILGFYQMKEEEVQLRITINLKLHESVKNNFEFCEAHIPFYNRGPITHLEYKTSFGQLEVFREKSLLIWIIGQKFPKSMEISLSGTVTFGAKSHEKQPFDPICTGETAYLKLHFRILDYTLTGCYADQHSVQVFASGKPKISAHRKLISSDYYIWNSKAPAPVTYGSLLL
UniProt Q96NW4, whole entry, looked up: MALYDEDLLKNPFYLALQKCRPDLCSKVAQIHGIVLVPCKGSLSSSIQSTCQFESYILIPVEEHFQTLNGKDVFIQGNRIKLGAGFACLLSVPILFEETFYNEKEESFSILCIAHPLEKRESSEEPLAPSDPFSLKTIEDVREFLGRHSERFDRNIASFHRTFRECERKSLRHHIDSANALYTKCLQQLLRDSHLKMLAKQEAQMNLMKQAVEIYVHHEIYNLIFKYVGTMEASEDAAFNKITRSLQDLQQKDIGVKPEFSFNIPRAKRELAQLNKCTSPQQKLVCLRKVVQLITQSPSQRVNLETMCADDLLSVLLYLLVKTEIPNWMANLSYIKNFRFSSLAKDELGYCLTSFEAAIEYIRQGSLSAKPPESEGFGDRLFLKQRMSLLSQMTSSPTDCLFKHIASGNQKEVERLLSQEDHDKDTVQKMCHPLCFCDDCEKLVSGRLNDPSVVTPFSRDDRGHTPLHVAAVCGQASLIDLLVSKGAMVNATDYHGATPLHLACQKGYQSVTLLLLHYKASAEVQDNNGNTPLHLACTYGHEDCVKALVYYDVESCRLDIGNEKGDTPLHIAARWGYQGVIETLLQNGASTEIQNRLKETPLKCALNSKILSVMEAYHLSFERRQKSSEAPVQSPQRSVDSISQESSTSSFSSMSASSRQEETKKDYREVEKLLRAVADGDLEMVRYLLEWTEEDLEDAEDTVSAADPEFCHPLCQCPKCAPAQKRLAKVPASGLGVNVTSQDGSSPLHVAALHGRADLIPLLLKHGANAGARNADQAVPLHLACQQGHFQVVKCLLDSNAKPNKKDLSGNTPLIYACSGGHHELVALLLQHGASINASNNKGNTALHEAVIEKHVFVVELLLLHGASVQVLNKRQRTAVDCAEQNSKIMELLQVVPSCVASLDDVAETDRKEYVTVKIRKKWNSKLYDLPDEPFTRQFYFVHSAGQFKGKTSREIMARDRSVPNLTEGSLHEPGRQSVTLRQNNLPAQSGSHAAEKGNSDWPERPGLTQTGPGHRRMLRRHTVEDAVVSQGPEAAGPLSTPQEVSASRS

What was measured:
Experiment in all cases: log2 fold change, soluble protein after heating vs DMSO (PISA); higher = thermal stabilisation; K562 cells, 10 uM, 30 min; active = over 0.2 and 3.5 SD of the protein, either way, in both replicates (recomputed)
[1] = compound: C1COCCN1CCN2C3=CC=CC=C3N=C2NC(=O)C4=CC(=CC=C4)[N+](=O)[O-] [IRAK-1-4 Inhibitor I]
How it was run: (§1)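 K562 cells at 2×10^6 cells/mL were treated for 30 min with 10 μM compound, and aliquots were heated for 3 min over 48°C-58°C before pooling. Extraction used PBS with 0.5% NP-40 at 4°C, and soluble protein was the supernatant after 21,000xg for 90 min, measured by TMTpro 16plex LC-MS/MS with channel sums equalised. Thermal stability values, relative to control samples and from duplicates, are log2 fold changes.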

[2] = compound: C=CC(=O)N1CCC[C@@H](n2nc(-c3ccc(Oc4ccccc4)cc3)c3c(N)ncnc32)C1 [ibrutinib]
How it was run: as §1

[3] = compound: CC(=O)c1cnc2ccc(-c3cc(Cl)c(O)c(Cl)c3)nc2c1N[C@H]1CC[C@H](CN(C)C)CC1
How it was run: as §1

[4] = compound: CC(C)(C)Cn1c(N)nc2ccc(-c3[nH]c(C(C)(C)C)nc3-c3ccc(F)cc3)nc21 [ralimetinib]
How it was run: as §1

[5] = compound: CC(C)(O)CC(=O)NCCn1ccc2ncnc(Nc3ccc(Oc4cccc(C(F)(F)F)c4)c(Cl)c3)c21
How it was run: as §1

[6] = compound: CC(C)C1=C2N=C(C=C(N2N=C1)NCC3=CC=CC=C3)NCCCCCCN
How it was run: as §1

[7] = compound: CC(C)C[C@@H](C=O)NC(=O)[C@H](CC(C)C)NC(=O)[C@H](CC(C)C)NC(=O)OCc1ccccc1
How it was run: as §1

[8] = compound: CC(C)N(C[C@H]1O[C@@H](n2cnc3c(N)ncnc32)[C@H](O)[C@@H]1O)[C@H]1C[C@@H](CCc2nc3cc(C(C)(C)C)ccc3[nH]2)C1 [pinometostat]
How it was run: as §1

[9] = compound: CC1=C(C(CC(=O)N1)C2=CC=C(C=C2)C(F)(F)F)C(=O)NC3=C(C=C4C(=C3)C=NN4)F
How it was run: as §1

[10] = compound: CC1=C(C2=C(C=C1)C(=O)C3=CC=CC=C3N2CCCN)C
How it was run: as §1

Measured: log2 fold change

ARHGEF7 isoform 5 (UniProt Q14155)
inactive: [1] -0.135 | [2] 0.006 | [3] -0.21 | [4] 0.12 | [5] -0.165 | [6] -0.18 | [7] 0.04 | [8] 0.142 | [9] -0.017 | [10] 0.026

AP2A1 (UniProt O95782)
inactive: [1] -0.054 | [2] 0.01 | [3] -0.14 | [4] 0.052 | [5] 0.027 | [6] 0.023 | [7] -0.06 | [8] 0 | [10] 0.081

AP1S1 (UniProt P61966)
inactive: [1] 0.001 | [2] -0.038 | [3] 0.013 | [4] 0.029 | [5] -0.02 | [6] -0.038 | [7] 0.034 | [8] 0.021 | [9] -0.061 | [10] 0.004

AP1B1 isoform 3 (UniProt Q10567)
inactive: [1] -0.001 | [3] 0.021 | [4] 0.097 | [5] -0.108 | [7] 0.125 | [8] -0.014 | [9] 0.022 | [10] 0.051

APOBEC3F (UniProt Q8IUX4)
inactive: [1] -0.139 | [2] -0.057 | [3] -0.244 | [4] -0.047 | [5] 0.161 | [7] 0.189 | [8] 0.154

APAF1 (UniProt O14727)
inactive: [1] 0.001 | [3] -0.153 | [4] -0.07 | [5] -0.08 | [6] -0.156 | [7] 0.135 | [8] 0.066

AP2M1 (UniProt C9JTK4)
inactive: [1] 0.056 | [2] -0.044 | [3] 0.049 | [5] 0.005 | [8] 0.03 | [10] 0.001

AREG (UniProt P15514)
inactive: [1] -0.114 | [3] 0.09 | [6] 0.207 | [8] 0.049

APOM (UniProt O95445)
inactive: [1] 0.01 | [2] 0.21 | [3] 0.033 | [4] 0.003 | [5] 0.026 | [6] 0.098 | [7] -0.017 | [8] -0.061 | [10] -0.169

AP4B1 (UniProt Q9Y6B7)
inactive: [1] -0.205 | [2] -0.008 | [3] 0.018 | [6] -0.192 | [8] 0.126 | [9] -0.126 | [10] -0.155

AP5M1 (UniProt Q9H0R1)
inactive: [1] 0.002 | [2] 0.027 | [4] 0.049 | [5] 0.065 | [7] 0.165 | [8] -0.058 | [9] -0.05

ANKRD27 (UniProt Q96NW4)
inactive: [1] -0.162 | [4] 0.375 | [7] 0.162 | [8] 0.613
